This is an account of results in patent US20090300780A1 (AbbVie / Abbott, published 2009).

Protein sequences, listed by entry. Tags and fused reporters are not part of them. Residues count along the entry.
UniProt P04629, residues 33-423: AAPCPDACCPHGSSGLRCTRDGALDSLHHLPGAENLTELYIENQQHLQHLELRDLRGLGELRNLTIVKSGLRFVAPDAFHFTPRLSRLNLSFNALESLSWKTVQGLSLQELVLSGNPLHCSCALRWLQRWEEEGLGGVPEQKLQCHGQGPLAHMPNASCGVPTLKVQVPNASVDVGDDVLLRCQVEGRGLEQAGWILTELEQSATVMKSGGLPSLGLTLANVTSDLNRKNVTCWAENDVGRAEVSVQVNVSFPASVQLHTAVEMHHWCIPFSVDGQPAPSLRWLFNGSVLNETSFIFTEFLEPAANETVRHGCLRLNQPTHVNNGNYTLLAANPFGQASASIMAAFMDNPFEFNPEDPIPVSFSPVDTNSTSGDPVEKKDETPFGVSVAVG

The assay has as its target purified recombinant immunoadhesin TrkA Camel (UniProt P04629). Nature of the assay: ELISA, TrkA Camel immunoadhesin coated at 10 ug/ml, COS supernatants with IgG1, detection by anti-human Cgamma, OD450.

No constants are given. Whether binding was seen depends on the method and setting. Some results given as binding are weak or reduced against the parent protein; the word gives no strength.

B1: MNAC13 humanized antibody (Hum MNAC13), IgG1 form (antibody, V domains shown)
VH: EVQLLESGGGLVQPGGSLRLSCAASGFTFSTYTMSWARQAPGKGLEWVAYISKGGGSTYYPDTVKGRFTISRDNSKNTLYLQMNSLRAEDSAVYYCARGAMFGNDFFFPMDRWGQGTLVTVSS
VL: DIVLTQSPSSLSASVGDRVTITCSASSSVSYMHWYQQKPGQAPKLLIYTTSNLASGVPSRFSGSGSGTDYTLTISSLQPEDVATYYCHQWSSYPWTFGGGTKVEIK
In the case of B1, the binding result was “binds”.
